Data: PubChem BioAssay AID2685 (National Center for Advancing Translational Sciences (NCATS), 2010)
This is one part of the list. The main result of the screen is listed elsewhere. These columns were measured beside it and carry no call. The list favours compounds with an active or inconclusive main result. Potencies come from curve fits of mixed quality, noted in brackets.

Assay: qHTS Assay for Lipid Storage Modulators in Drosophila S3 Cells;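 for cell number change: cells counted by Cell Tracker Red CMTPX staining in the red channel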
Conditions: BODIPY lipid droplet fluorescence, 18-24 h; for cell number change: measured here: cell count max response, cells fed with added oleic acid
Outline: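 Laser-scanning cytometry quantifies lipid droplet accumulation (500–530 nm total intensity; droplet/cell object ratio) in oleic acid-fed (400 uM added) Drosophila S3 cells treated with a concentration series. 20 uM Triacsin C defined 100% inhibition.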

[1] = measured here: lipid fluorescence (Fed channel) AC50, cells fed with added oleic acid
[2] = measured here: cell number channel AC50, cells fed with added oleic acid

| Structure (SMILES) | cell number change [%] | AC50 [1] | AC50 [2] |
| --- | --- | --- | --- |
| Cc1cc(OC(=O)c2ccco2)c2c3c(c(=O)oc2c1)CCC3 | 9.67 | – | – |
| CSC1=NP(=S)(SC)N2CCCC2=C1C#N (stereo unspecified) | 1.35 | 0.231 µM [rising, full curve, poor fit] | – |
| Fc1ccc(CNCCc2c[nH]c3ccccc23)cc1 | 1.1 | 29.1 µM [rising, single point] | – |
| CCOC(=O)[C@@]1(C#N)C(c2ccc(Cl)c(Cl)c2)[C@H](C(N)=O)N2C=C(C(C)=O)C=C[C@H]21 (stereo partly specified) | -28 | 0.0058 µM [falling, full curve, poor fit] | – |
| CCN(CC)c1ccc(N=Cc2c(O)[nH]c(=O)[nH]c2=O)cc1 | -28.3 | 0.13 µM [falling, full curve, poor fit] | – |
| CC(C)(Cl)[N+](=O)[O-] | -7.12 | 1.64 µM [rising, partial curve, poor fit] | – |
| O=P(N1CCCCC1)(N1CCCCC1)C(Cl)(Cl)Cl | -22.9 | 0.146 µM [falling, full curve, poor fit] | 0.731 µM [falling, full curve, poor fit] |
| C=CCN1C(=O)/C(=C/c2cccs2)C(=O)NC1=S | -48.4 | 16.4 µM [falling, partial curve] | 18.4 µM [falling, single point] |
| O=C(/C=C/c1ccc2c(c1)OCO2)c1c(O)n(CCc2ccccc2)c(=O)[nH]c1=O | 24.5 | 5.8 µM [rising, partial curve] | – |
| N=c1c[n+](CC23CC4CC(CC(C4)C2)C3)[n-]o1 | -6.53 | 5.17 µM [falling, full curve] | – |
| CCOc1ccc(N2C(=O)/C(=C\c3cccs3)C(=O)NC2=S)cc1 | -29.2 | – | – |
| COc1ccc(C(=O)C2CCCN(C3CSCCSC3)C2)c(C)c1 (stereo unspecified) | -9.54 | – | – |
| CCn1c(O)c(/C=N/N2CCOCC2)c(=O)n(CC)c1=S | -1.9 | – | 6.51 µM [rising, single point] |
| COC(=O)C1=C(c2ccc(F)cc2F)C[C@@H]2CC[C@H]1N2C(=O)NC(C)C | -3.97 | 29.1 µM [rising, single point] | – |
| Fc1ccc(CCNCc2ccccc2Cl)cc1 | 37.7 | – | 11.6 µM [rising, single point] |
| C#C[C@]1(O)CCC2C3CCC4=C/C(=N/OCC(=O)NC(C)C(=O)NC(CCSC)C(=O)O)CC[C@]4(C)C3CC[C@@]21C (stereo partly specified) | 14 | 0.259 µM [rising, full curve] | – |
| CC1CCCC(C)N1/N=C/c1c[nH]c2ccc(Br)cc12 (stereo unspecified) | -61.9 | 20.6 µM [falling, single point] | 16.4 µM [falling, single point] |
| CON(C)C(=O)Nc1ccc(Cl)cc1 | -177 | 0.103 µM [falling, full curve, poor fit] | 18.4 µM [falling, partial curve] |
| O=C(CCl)NCC1CCCO1 (stereo unspecified) | 70.1 | – | – |
| CCn1c(O)c(C=Nc2cc(Cl)ccc2Cl)c(=O)n(CC)c1=O | 21.1 | 10.3 µM [rising, partial curve, poor fit] | – |

Sorted by SMILES length (largest number first): three of the compounds above

| Structure (SMILES) | cell number change [%] | AC50 [1] | AC50 [2] |
| --- | --- | --- | --- |
| CCn1c(O)c(/C=N/N2CCOCC2)c(=O)n(CC)c1=S | -1.9 | – | 6.51 µM [rising, single point] |
| CSC1=NP(=S)(SC)N2CCCC2=C1C#N (stereo unspecified) | 1.35 | 0.231 µM [rising, full curve, poor fit] | – |
| CON(C)C(=O)Nc1ccc(Cl)cc1 | -177 | 0.103 µM [falling, full curve, poor fit] | 18.4 µM [falling, partial curve] |

Later entries:

| Structure (SMILES) | cell number change [%] | AC50 [1] | AC50 [2] |
| --- | --- | --- | --- |
| CSCCC(N=Cc1c(O)n(-c2ccc(Cl)cc2)c(=O)[nH]c1=O)C(=O)OC(C)(C)C (stereo unspecified) | – | 6.51 µM [falling, single point] | – |
| Fc1ccc(C[n+]2c(-c3ccccc3)cc(-c3ccccc3)cc2-c2ccccc2)cc1 | – | 2.06 µM [falling, partial curve] | 6.51 µM [falling, single point] |
| N/C(=N\N=C/c1ccc(-c2ccc(O)c(C(=O)O)c2)o1)N[N+](=O)[O-] | -15.8 | – | – |
| Cc1cccc2c1N(N=O)CCC2 | 7.11 | 29.1 µM [rising, single point] | – |
| CN(C)CP(=O)(O)CN(C)C=O | -1.88 | 32.6 µM [falling, partial curve] | – |
| Cc1cccc(OP(N)(=O)Oc2cccc(C)c2)c1 | 23.9 | 0.092 µM [falling, full curve, poor fit] | – |
| Cc1c(C(c2ccc(F)cc2)c2c(O)c3ccccc3oc2=O)c(=O)n(-c2ccccc2)n1C (stereo unspecified) | 12.2 | 32.6 µM [rising, single point] | – |
| COc1ccc(CCC(C)NCCc2ccccc2)cc1 (stereo unspecified) | -56.3 | – | 23.1 µM [falling, single point] |
| CCCOc1ccc(N2C(=O)CC(N3CC=C(c4ccccc4)CC3)C2=O)cc1 (stereo unspecified) | -1.83 | – | – |
| Cn1cc(C(=O)OCC(=O)NC2(C#N)CCCCC2)c2ccccc21 | -40.1 | – | 32.6 µM [falling, single point] |
| CCC1C(c2ccccc2)NC(c2ccccc2)CC1(O)c1ccc(F)cc1 (stereo unspecified) | -36.6 | 29.1 µM [falling, single point] | 0.164 µM [falling, full curve, poor fit] |
| Cc1ccc(-n2nc(C)c3c2NC(=O)CSC3c2ccc3c(c2)OCO3)cc1 (stereo unspecified) | -2.55 | – | – |
| COC(=O)C1=C(c2cccc(OCc3ccccc3)c2)C[C@@H]2CC[C@H]1N2C(=O)NCc1ccc(OC)cc1 | -12.9 | 0.92 µM [falling, single point] | – |
| COc1ccccc1C1CC2CCC(C1OC(C)=O)N2Cc1ccccc1 (stereo unspecified) | -19.8 | 1.46 µM [falling, partial curve] | – |
| COC(=O)c1c(C)[nH]c(C(=O)C(Cc2ccccc2)N(C)C)c1C (stereo unspecified) | 25.6 | 2.06 µM [rising, partial curve] | – |
| c1ccc(-c2ccc(C(c3ccccc3)n3ccnc3)cc2)cc1 (stereo unspecified) | – | – | 18.4 µM [falling, single point] |
| CCC(=O)Nc1ccc(N2CCN(CC)CC2)c(Cl)c1 | -5.71 | 29.1 µM [rising, single point] | – |
| COC(=O)C(O)(c1c[nH]c2ccccc12)C(F)(F)F (stereo unspecified) | 9.77 | – | – |
| CC(=O)O[C@H]1[C@H]2O[C@]23[C@@H]2CC[C@]4(O)C[C@@H](O)CC[C@]4(C)C2CC[C@]3(C)[C@H]1c1ccc(=O)oc1 (stereo partly specified) | -2.53 | 1.84 µM [rising, partial curve] | – |
| Cc1ccccc1-n1c(O)c(C=NCCN2CCOCC2)c(=O)[nH]c1=O | -36.2 | 29.1 µM [falling, single point] | 4.11 µM [falling, full curve] |
